Test results published in PMC3572160.
These are yes or no findings as the source states them, for the method shown. Binding seen in cells or lysates may run through a third protein. Some binding calls cover weakened binding; strength is not graded here.

The chains behind the UniProt entries cited, without tags or fusion partners.
UniProt Q07157: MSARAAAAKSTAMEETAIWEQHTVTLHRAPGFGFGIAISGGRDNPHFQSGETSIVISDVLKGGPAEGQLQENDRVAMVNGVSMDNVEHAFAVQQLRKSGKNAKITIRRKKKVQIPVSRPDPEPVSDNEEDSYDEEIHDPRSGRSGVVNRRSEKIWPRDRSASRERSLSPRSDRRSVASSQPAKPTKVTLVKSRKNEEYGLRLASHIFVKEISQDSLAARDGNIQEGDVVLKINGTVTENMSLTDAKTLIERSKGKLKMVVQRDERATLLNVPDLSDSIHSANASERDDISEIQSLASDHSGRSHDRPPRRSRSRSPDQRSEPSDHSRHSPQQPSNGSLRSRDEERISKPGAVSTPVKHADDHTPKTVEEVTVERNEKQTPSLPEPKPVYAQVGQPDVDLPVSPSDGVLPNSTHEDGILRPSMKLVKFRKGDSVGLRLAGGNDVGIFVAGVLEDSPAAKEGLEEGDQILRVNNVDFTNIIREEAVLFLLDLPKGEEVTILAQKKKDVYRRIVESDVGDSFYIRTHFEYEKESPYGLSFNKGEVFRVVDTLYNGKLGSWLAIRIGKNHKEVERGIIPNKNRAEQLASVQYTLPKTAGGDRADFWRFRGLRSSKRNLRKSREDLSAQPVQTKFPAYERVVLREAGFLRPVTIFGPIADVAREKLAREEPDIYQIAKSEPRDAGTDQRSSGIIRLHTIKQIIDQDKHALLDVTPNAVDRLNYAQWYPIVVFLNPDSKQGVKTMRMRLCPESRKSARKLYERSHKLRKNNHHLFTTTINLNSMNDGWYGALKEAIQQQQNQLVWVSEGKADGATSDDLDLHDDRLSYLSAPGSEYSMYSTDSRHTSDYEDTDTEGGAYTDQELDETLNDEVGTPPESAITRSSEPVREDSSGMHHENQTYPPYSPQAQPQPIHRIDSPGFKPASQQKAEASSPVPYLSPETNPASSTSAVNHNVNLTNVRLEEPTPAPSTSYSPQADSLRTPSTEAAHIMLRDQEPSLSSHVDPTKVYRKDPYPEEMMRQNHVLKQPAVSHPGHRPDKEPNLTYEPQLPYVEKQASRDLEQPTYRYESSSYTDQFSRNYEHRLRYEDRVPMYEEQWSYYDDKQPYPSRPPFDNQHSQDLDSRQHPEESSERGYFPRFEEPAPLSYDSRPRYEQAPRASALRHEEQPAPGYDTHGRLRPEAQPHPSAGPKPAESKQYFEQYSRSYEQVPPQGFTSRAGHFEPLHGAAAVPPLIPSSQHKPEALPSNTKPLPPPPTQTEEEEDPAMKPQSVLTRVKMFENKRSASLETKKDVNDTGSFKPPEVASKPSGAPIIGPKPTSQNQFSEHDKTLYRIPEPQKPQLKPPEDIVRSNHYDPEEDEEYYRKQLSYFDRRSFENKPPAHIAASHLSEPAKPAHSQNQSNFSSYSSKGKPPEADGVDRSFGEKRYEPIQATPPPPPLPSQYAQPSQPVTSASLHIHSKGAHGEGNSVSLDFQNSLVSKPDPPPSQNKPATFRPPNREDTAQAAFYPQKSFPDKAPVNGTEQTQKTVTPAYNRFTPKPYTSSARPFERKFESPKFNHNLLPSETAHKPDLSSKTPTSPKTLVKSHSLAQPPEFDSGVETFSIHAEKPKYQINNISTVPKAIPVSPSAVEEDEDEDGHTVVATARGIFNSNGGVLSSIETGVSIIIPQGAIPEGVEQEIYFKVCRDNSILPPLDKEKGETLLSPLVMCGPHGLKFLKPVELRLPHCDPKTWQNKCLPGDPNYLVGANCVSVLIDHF
UniProt P35222: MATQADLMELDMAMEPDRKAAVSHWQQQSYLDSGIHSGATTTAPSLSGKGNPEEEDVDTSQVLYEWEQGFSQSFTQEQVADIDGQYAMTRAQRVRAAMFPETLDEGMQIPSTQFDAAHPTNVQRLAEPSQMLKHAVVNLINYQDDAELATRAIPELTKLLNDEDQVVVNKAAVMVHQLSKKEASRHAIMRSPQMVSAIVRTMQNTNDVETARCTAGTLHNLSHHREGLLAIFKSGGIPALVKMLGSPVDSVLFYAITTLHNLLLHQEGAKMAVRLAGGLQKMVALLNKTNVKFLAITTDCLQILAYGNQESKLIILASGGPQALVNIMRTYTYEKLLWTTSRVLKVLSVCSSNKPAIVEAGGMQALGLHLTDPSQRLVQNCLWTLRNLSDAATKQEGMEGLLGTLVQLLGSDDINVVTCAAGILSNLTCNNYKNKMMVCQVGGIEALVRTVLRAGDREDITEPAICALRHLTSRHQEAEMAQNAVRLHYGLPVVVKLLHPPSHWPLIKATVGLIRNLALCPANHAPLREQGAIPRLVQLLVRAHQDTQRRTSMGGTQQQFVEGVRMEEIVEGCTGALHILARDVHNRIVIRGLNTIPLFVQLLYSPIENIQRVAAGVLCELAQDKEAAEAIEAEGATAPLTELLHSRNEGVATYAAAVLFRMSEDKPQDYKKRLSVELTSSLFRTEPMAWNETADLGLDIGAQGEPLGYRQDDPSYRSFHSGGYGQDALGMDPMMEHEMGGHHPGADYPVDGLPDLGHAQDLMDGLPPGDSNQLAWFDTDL

Target: ZO-1 (human (endogenous in BMVEC)) (UniProt Q07157)
Experiment: co-IP; BMVEC monolayers without or with escalating doses (1-10 µM) of SB216763; fractions with 500 µg total protein precleared with protein A-Sepharose, incubated with antibodies to ZO-1 at 4°C overnight, washed 5 times with RIPA buffer; immunoblotted for β-catenin

For β-catenin (from UniProt P35222 1-781), the binding was “binds”.
